Reference: PMC9278437 (Journal of Enzyme Inhibition and Medicinal Chemistry, 2022)

Test system: WI-38 normal lung cells
Assay: In vitro cytotoxicity against normal cells WI-38
Assay type: cell-based
Settings: Homo sapiens, WI-38, read-out: In vitro IC50 (µM) as Mean ± SD Normal cell WI-38

## CN[C@@H]1C[C@H]2O[C@@](C)([C@@H]1OC)n1c3ccccc3c3c4c(c5c6ccccc6n2c5c31)C(=O)NC4 [Staurosporine]
  IC50: 57.6 ± 1.42 µM
